{"source": "paper PMC4077236", "about": "(Neurochemistry International, 2014)", "origin": "cited, not measured here", "details": "oral administration of 50 mg levamisole; on average; ref Gwilt et al., 2000; cited from earlier work", "data": [{"compound": "c1ccc([C@H]2CN3CCSC3=N2)cc1", "note": "[levamisole]", "values": [{"measurement": "peak plasma concentrations (cmax)", "value": 368, "unit": "µg/L"}]}]}
